This test has as its target serine/threonine phosphatase PP2A (human (endogenous in MDA-MB231)) (UniProt P67775). As to the kind of experiment: co-IP; MDA-MB231 lysate (500 ug; 50 mM Tris pH 8, 1% NP40, 137 mM NaCl) immunoprecipitated with anti-PP2A antibody overnight at 4 C, protein A/G Sepharose, washed with TBST; blot for SET.

Protein sequences, listed by entry. Tags and fused reporters are not part of them. Lines headed by an entry give the natural chain unless they say otherwise; changes in a name come on top.
UniProt P67775: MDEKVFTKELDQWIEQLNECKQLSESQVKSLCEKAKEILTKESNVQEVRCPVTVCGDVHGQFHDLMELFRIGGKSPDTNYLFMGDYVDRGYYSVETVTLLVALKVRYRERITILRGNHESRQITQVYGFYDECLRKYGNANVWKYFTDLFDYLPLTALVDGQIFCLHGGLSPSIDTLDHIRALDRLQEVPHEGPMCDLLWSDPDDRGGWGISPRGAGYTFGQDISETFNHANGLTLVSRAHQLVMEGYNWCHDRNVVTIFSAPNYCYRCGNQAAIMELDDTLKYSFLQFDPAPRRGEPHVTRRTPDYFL
UniProt Q01105: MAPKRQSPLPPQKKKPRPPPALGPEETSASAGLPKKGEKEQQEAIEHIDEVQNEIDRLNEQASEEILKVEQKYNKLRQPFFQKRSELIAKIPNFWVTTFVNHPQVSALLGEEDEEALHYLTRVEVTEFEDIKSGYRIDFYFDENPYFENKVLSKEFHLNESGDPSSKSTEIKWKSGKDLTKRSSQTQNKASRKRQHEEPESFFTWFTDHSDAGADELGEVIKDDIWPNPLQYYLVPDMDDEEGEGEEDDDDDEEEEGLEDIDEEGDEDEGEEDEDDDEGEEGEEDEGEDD

Experimental findings from article PMC8541685 are described below.

These are yes or no findings as the source states them, for the method shown. In cells and extracts the contact can be indirect. A result given as binding can be weak or reduced; the word gives no strength.

As to “oncoprotein SET (from UniProt Q01105 1-290)”, the binding result was “binds”.
